Source: the ROBIN nucleic acid binder screens (doi:10.1002/anie.202211358).

Targets, with sequences 5′ to 3′:
PreQ1: PreQ1 riboswitch RNA pseudoknot, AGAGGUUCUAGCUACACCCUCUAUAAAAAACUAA. From B. subtilis. About 170 hits among about 24,000 compounds.
TPP: TPP riboswitch RNA three-way junction, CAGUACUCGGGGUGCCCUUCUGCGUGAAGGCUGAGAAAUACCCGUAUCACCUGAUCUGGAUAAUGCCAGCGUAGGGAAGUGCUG. About 160 hits among about 24,000 compounds.
SAM-II: SAM-II riboswitch RNA pseudoknot, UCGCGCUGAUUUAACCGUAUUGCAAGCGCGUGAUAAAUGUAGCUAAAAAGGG. About 200 hits among about 21,000 compounds.

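Compounds were printed on reactive glass slides in duplicate spots, a dye-labelled oligonucleotide was laid over them, and the fluorescence left after washing was read. The data file lists only calls. An earlier report of the laboratory on the PreQ1, TPP and SAM-II riboswitches (doi:10.1038/s41467-019-09493-3) used 1 µM RNA for 2 h and required a mean Z-score above 3 (spot signal-to-noise against the whole library), a score well above that on a control array, and duplicate spots agreeing (coefficient of variation under 100); it then also set aside compounds that hit other targets, which this list keeps. The cut-offs behind this list may differ. A missing hit is not proof of no binding, and a hit is not a measured affinity.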
“1” means called a hit, “0” means screened and not called a hit.
The compounds are a random part of those screened.
A dash means that no call is listed here.

| SMILES | PreQ1 | TPP | SAM-II |
|---|---|---|---|
| `Nc1ccc(-c2ncc3n2CCCC3)cc1` | 0 | 0 | 0 |
| `COc1cccc(CNc2c(-c3ccc(C)cc3)c(=O)c2=O)c1` | 0 | 0 | - |
| `Nc1cc(N)nc(CS)n1` | 0 | 0 | 0 |
| `COc1cccc(CC2(CO)CCN(C(=O)c3cc4cc(F)ccc4[nH]3)CC2)c1` | 0 | 0 | 0 |
| `COc1ccc(CNCc2ccc(C)cc2)cc1OC` | 0 | 0 | 0 |
| `COc1ccc(C=CCN2CC[C@@H](NC(=O)c3cccnc3)[C@H](O)C2)cc1` | 0 | 0 | 0 |
| `CN(C)CC[C@H](CSc1ccccc1)Nc1ccc(S(=O)(=O)NC(=O)c2ccc(N3CCN(Cc4ccccc4-c4ccc(Cl)cc4)CC3)cc2)cc1[N+](=O)[O-]` | 0 | 0 | 0 |
| `Cc1nn2c(NCCN3CCOCC3)cc(-c3ccccc3)nc2c1-c1ccccc1` | 0 | 0 | - |
| `Nc1nonc1-c1nc2ccccc2n1Cc1cc2c(cc1Br)OCO2` | 0 | 0 | - |
| `COC(=O)CCCCCNc1cc(C)nc2nc(Cc3ccc(Cl)cc3)nn12` | 0 | 0 | - |
| `Cc1cc(N)c2cc(C(=O)O)ccc2n1` | 0 | 0 | 0 |
| `Cc1ccc2c(CNCCc3ccccc3)c(C(=O)O)[nH]c2c1` | 0 | 0 | - |
| `Nc1nonc1C(=O)NCCNCc1cccc(Br)c1` | 0 | 0 | - |
| `CN(CC1(CO)CCOCC1)C(=O)CCc1cccnc1` | 0 | 0 | 0 |
| `CC(C)Oc1ccc2c(NC(=O)[C@@H](N)[C@@H](C)O)nn(Cc3ccccc3)c2c1` | 0 | 0 | 0 |
| `N#CC(=Cc1cn(Cc2ccc(Cl)cc2Cl)nc1-c1ccccc1)c1nn(CCO)c(N)c1C#N` | 0 | 0 | 0 |
| `Cc1cncc(C(=O)N2CCNCC2C(=O)NCc2ccncc2)c1` (stereo not drawn) | 0 | 0 | 0 |
| `Cn1cc(C2=C(c3cn(C4CCN(Cc5ccccn5)CC4)c4ccccc34)C(=O)NC2=O)c2ccccc21` | 0 | 0 | 0 |
| `Cc1cc(N)cc(C)c1OCC(=O)N1CCOCC1` | 0 | 0 | 0 |
| `O=C(O)C(O)COc1ccc2c(c1)OCO2` (stereo not drawn) | 0 | 0 | 0 |
| `COc1ccc(CNc2cc(C)nc3nc(-c4cccnc4)nn23)cc1` | 0 | 0 | - |
| `CC(C)=CCCC(C)=CCCC(C)=CCSc1ccccc1C(=O)O` | 0 | 0 | 0 |
| `Cc1ccc2c(N3C[C@H]4C[C@H](O)[C@H](O)C[C@H]4C3)ccnc2c1C` | 0 | 0 | 0 |
| `O=C1OC(Nc2cccc(C(F)(F)F)c2)c2ccccc21` (stereo not drawn) | 0 | 0 | 0 |
| `CC12CC3CC(C)(C1)CC(C(=O)N1CCN(CCOCCO)CC1)(C3)C2` | 0 | 0 | 0 |
| `OCC(Cc1ccco1)Cn1ccnc1-c1cc2ccccc2o1` (stereo not drawn) | 0 | 0 | 0 |
| `Cc1nc2sc(-c3nnc(-c4ccccc4)o3)c(N)c2c(C)c1Cl` | 0 | 0 | 0 |
| `COc1cc2c(cc1OC)C1CC(=O)C(CC(C)C)CN1CC2` (stereo not drawn) | 0 | 0 | 0 |
| `COc1ccc(-c2n[nH]cc2CNC(=O)[C@H]2CC[C@@H](N)C2)cc1` | 0 | 0 | 0 |
| `CCCCNc1cc(C)nc2nc(-c3ccc(C)cc3)nn12` | 0 | 0 | - |
| `CC[C@H]1OC(=O)[C@H](C)[C@@H](O[C@H]2C[C@@](C)(OC)[C@@H](O)[C@H](C)O2)[C@H](C)[C@@H](O[C@@H]2O[C@@H](C)C[C@H](N(C)C)[C@@H]2O)[C@](C)(O)C[C@@H](C)C(=O)[C@H](C)[C@@H](O)[C@]1(C)O` | 0 | 0 | 0 |
| `CC(C)(C)c1ccc(OCc2nc(CC3CNCCO3)n(CCO)n2)cc1` (stereo not drawn) | 0 | 0 | 0 |
| `COC(=O)[C@@H]1C[C@@H](O)CN1C(=O)c1cc(C)sc1NC(=O)C(C)(C)C` | 0 | 0 | 0 |
| `CCOC(=O)c1cnc2c(C(F)(F)F)cccc2c1Nc1cccc(C(C)=O)c1` | 0 | 0 | 0 |
| `COc1cccc([C@@H]2CCN(Cc3cc4ccccc4n(C)c3=O)C[C@H]2O)c1` | 0 | 0 | 0 |
| `Clc1ccc(Nc2nnc(-c3ccc4c(c3)OCO4)o2)cc1` | 0 | 0 | 0 |
| `CC(=O)N1CCCN(c2ncc(S(C)(=O)=O)c(C3CCCNC3)n2)CC1` (stereo not drawn) | 0 | 0 | 0 |
| `COc1ccc(C(C)(C)C)cc1NC(=O)NCCCN1CCCC(O)C1` (stereo not drawn) | 0 | 0 | 0 |
| `Nc1ccc(C(=O)N2CCn3nc(C(=O)NC4CC4)cc3C2)cn1` | 0 | 0 | 0 |
| `NC(=O)C1=C(Nc2ccc(Br)cc2F)c2ccccc2S1(=O)=O` | 0 | 0 | - |
| `Nc1nonc1C(=O)NCCNCc1c(OCc2ccccc2)ccc2ccccc12` | 1 | 0 | 0 |
| `COc1ccccc1-c1cc2nc(C)cc(NCc3cccnc3)n2n1` | 0 | 0 | - |
| `O=C(Nc1cccc2ccccc12)N1CCC2(CCNCC2)C1` | 0 | 0 | 0 |
| `Cn1ncc(N2CCOC(CCNc3cc(N)ncn3)C2)cc1=O` (stereo not drawn) | 0 | 0 | 0 |
| `Cn1cccc1CNCc1ccccn1` | 0 | 0 | 0 |
| `COc1cc(CNC(C)(C)CO)cc(Br)c1OCc1ccc(F)cc1` | 0 | 0 | 0 |
| `CC(C)Oc1ccc(CNCCC2(C(C)C)CCOC(C)(C)C2)cc1` (stereo not drawn) | 0 | 0 | 0 |
| `Cc1cccc(NC(=O)C(Nc2cccc(C)c2)(c2ccccc2)c2ccccc2)c1` | 0 | 0 | 0 |
| `CC(C)CNc1oc(-c2ccc(F)cc2)nc1S(=O)(=O)c1ccc(F)cc1` | 0 | 0 | - |
| `CCOC(=O)c1ccc(OC(=O)CCCCCN=C(N)N)cc1` | 0 | 0 | 0 |
| `CCCC1COCCN1C(=O)CSc1nc(N)n[nH]1` (stereo not drawn) | 0 | 0 | 0 |
| `COc1ccccc1CCNc1nc(N)c2ccccc2n1` | 0 | 0 | 0 |
| `Cc1cc(C)n(CC(O)COc2ccc(Cl)cc2)n1` (stereo not drawn) | 0 | 0 | 1 |
| `CCCC(O)c1nc2ccccc2n1Cc1ccccc1Cl` (stereo not drawn) | 0 | 0 | - |
| `CCSc1ncc(S(=O)(=O)c2ccccc2)c(N)n1` | 0 | 0 | - |
| `CCCCCCn1c(CCCO)nc2ccccc21` | 0 | 0 | - |
| `COc1ccc(CNC(=O)c2nnn(Cc3ccc(C(C)C)cc3)c2N)cc1` | 0 | 0 | 0 |
| `Cc1cccc(-c2noc(-c3cccnc3NC3CCCC3)n2)c1` | 0 | 0 | - |
| `COC(=O)C1=C(C(=O)OC)[C@@H]2CCC[C@H]1[C@H]1[C@@H]2N=NN1c1ccccc1` | 0 | 0 | 0 |
| `CCCC(NCc1cccnc1)c1ccccc1.Cl` (stereo not drawn) | 0 | 0 | 0 |
| `COCCNc1nc2c(c(=O)n(Cc3cccc(Cl)c3)c(=O)n2C)n1C` | 0 | 0 | 0 |
| `CC(C)O[C@H]1CN(C(=O)CCN2CCCCO2)C[C@@H]1O` | 0 | 0 | 0 |
| `CCc1nc2oc(C(=O)c3ccccc3)c(N)c2c2c1COC(C)(C)C2` | 0 | 0 | 0 |
| `Cc1c(Cl)cccc1NC1c2ccccc2C(=O)N1c1ccccn1` (stereo not drawn) | 0 | 0 | 0 |
| `COc1ccc(CNc2c(S(=O)(=O)c3ccccc3)cnc3ccc(F)cc23)cc1` | 0 | 0 | - |
| `CCCCNc1ncccc1-c1nc(-c2cccc(C)c2)no1` | 0 | 0 | - |
| `CN(C)CCOc1cc(-c2cn[nH]c2)ccc1NC(=O)C1COc2ccccc2O1` (stereo not drawn) | 0 | 0 | 0 |
| `O=C(O)C1CN(C(=O)c2ccc(-c3cn(-c4ccccc4)cn3)cc2)CCN1` (stereo not drawn) | 0 | 0 | 0 |
| `CC(=O)c1ccccc1OCC(O)Cn1cnc2cc(C)c(C)cc21` (stereo not drawn) | 0 | 0 | 0 |
| `COc1ccccc1C1(CCNCc2ccc(N(C)C)cc2)CCOC(C)(C)C1` (stereo not drawn) | 0 | 0 | 0 |
| `Cc1ccc(OCc2occc2C(=O)NC[C@@H]2C[C@H](F)CN2)cc1` | 0 | 0 | 0 |
| `Cn1c(=O)c2c(c3ccccc31)OC(N)=C(C#N)C2c1cccc(Cl)c1` (stereo not drawn) | 0 | 0 | 0 |
| `Cc1ccc(C)c(N2CCN(CC3(O)CCNC3)CC2)c1` (stereo not drawn) | 0 | 0 | 0 |

For reference, 5 entries once more:

SMILES	PreQ1	TPP	SAM-II
CCc1nc2oc(C(=O)c3ccccc3)c(N)c2c2c1COC(C)(C)C2	0	0	0
Nc1nonc1C(=O)NCCNCc1cccc(Br)c1	0	0	-
COC(=O)C1=C(C(=O)OC)[C@@H]2CCC[C@H]1[C@H]1[C@@H]2N=NN1c1ccccc1	0	0	0
CC(C)Oc1ccc2c(NC(=O)[C@@H](N)[C@@H](C)O)nn(Cc3ccccc3)c2c1	0	0	0
Cn1c(=O)c2c(c3ccccc31)OC(N)=C(C#N)C2c1cccc(Cl)c1 (stereo not drawn)	0	0	0